In patent US20110143963A1 one finds binding data, which are given here for 4 molecules.

For experiment [1], the target named is SUMO-ARVCF fusion protein (yeast). The experiment can be described thus: pull-down with biotinylated ePDZ and streptavidin magnetic beads.
Experiment [2] has the same target. The experiment can be described thus: Western blotting of E. coli lysate with 5 nanograms of SUMO-ARVCF. (A western blot detects proteins with antibodies after separation by electrophoresis.)
Experiment [3] has the same target. The experiment in a line: immunoprecipitation (pull-down), FIG. E2B.
The target is the same in experiment [4]. The experiment can be described thus: equilibrium SPR, response against the concentration of the target peptide fused to SUMO.

Residue numbers refer to the chain shown, from its start. These are yes or no findings as the source states them, for the method shown. Binding calls can cover weak binding; strength is not graded here. For part of these data: In cells and extracts the contact can be indirect.

B1: enhanced PDZ-b (designed binder)
chain: MKHHHHHHHHHHSSDYKDDDDKGENLYFQGSPELGFSISGGVGGRGNPFRPDDDGIFVTRVQPEGPASKLLQPGDKIIQANGYSFINIEHGQAVSLLKTFQNTVELIIVREVGNGAKQEIRVRVEKDGGSGGVSSVPTNLEVVAATPTSLLISWDAYYDSHVSYYRITYGETGGNSPVQEFTVPGSKSTATISGLKPGVDYTITVYAHYNYHYYSSPISINYRT
Take B1: the binding entry in experiment [1] and in experiment [2] was “binds” in each case.

B2: ePDZ-b1 (designed binder)
chain: B1 chain with Y158R, D159E, S160L, H161P
As for B2, the binding result in experiment [3] is on record as “binds”.

B3: enhanced PDZ-a (designed binder)
chain: MKHHHHHHHHHHSSDYKDDDDKGENLYFQGSPELGFSISGGVGGRGNPFRPDDDGIFVTRVQPEGPASKLLQPGDKIIQANGYSFINIEHGQAVSLLKTFQNTVELIIVREVGNGAKQEIRVRVEKDGGSGGVSSVPTNLEVVAATPTSLLISWDASYYGVSYYRITYGETGGNSPVQEFTVPYSSSTATISGLKPGVDYTITVYAYSDYYGSHHYSPISINYRT
As to B3, the binding entry in experiment [1] and in experiment [2] was “binds” each time.

B4: circularly permutated PDZ domain (designed binder)
chain: PELGFSISGGVGGRGNPFRPDDDGIFVTRVQPEGPASKLLQPGDKIIQANGYSFINIEHGQAVSLLKTFQNTVELIIVREVGNGAKQEIRVRVEKD
On to B4, for which the binding result in experiment [4] is on record as “binds”.
